Assay results taken from publication doi:10.1101/2024.04.25.591203.
Results are given in words; binding and its absence hold for the method and conditions named. In cells and extracts the contact can be indirect. Some results given as binding are weak or reduced against the parent protein; the word gives no strength.

Sequences of proteins named here, by UniProt entry; tags and fusion partners are left off. A change or cut given only in a name is not applied to a line headed by its entry.
UniProt Q9NYV8: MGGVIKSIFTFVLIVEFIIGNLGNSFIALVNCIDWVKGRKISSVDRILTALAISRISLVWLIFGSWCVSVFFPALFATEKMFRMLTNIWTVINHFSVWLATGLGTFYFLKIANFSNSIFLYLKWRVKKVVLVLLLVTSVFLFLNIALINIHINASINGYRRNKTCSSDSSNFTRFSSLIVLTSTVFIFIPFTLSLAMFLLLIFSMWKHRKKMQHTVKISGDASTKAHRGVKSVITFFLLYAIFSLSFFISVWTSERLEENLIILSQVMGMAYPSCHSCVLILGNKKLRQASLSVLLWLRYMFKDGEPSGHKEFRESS
UniProt P13569: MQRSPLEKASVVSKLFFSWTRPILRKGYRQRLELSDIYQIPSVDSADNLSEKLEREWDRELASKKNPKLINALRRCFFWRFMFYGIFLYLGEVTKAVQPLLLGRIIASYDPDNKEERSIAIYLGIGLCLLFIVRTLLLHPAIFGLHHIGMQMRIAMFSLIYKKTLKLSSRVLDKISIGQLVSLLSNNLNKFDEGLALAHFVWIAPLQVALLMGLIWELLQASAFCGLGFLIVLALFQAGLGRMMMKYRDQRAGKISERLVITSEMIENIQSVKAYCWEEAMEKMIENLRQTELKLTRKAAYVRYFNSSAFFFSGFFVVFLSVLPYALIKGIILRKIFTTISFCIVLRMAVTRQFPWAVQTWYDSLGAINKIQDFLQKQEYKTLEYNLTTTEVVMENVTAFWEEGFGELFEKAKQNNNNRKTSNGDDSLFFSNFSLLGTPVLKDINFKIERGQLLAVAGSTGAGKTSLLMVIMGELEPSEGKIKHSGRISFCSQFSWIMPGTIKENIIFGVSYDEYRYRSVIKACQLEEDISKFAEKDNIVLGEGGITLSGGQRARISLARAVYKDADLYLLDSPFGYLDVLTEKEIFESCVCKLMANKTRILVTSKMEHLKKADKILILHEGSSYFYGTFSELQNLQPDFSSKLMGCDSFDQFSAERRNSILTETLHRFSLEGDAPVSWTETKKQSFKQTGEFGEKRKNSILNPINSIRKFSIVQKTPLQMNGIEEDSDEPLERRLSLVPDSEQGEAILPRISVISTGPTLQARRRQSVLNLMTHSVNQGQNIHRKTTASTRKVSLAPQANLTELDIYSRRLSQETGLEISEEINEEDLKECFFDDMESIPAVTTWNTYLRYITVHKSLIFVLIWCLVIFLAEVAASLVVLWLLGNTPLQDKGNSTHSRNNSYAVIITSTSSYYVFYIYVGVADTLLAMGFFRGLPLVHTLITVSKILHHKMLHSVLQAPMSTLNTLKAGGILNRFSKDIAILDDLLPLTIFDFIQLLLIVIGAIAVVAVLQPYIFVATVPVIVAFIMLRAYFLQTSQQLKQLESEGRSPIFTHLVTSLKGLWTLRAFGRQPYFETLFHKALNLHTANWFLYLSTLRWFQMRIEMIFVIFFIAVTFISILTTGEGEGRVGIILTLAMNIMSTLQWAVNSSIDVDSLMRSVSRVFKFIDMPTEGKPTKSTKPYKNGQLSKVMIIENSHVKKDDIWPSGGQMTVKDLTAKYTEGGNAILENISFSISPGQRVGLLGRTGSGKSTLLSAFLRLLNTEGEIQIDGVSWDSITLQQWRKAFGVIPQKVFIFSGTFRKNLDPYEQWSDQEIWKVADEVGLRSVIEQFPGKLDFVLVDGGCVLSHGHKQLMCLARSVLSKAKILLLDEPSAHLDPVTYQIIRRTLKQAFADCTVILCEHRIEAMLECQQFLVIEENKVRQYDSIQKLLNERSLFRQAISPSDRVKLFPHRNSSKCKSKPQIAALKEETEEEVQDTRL

What was measured:
[1] = target: T2R14 tagged with a C-terminus Nanoluciferase (UniProt Q9NYV8); assay: FRET or BRET
[2] = target: T2R14 of the SPASM sensors (UniProt Q9NYV8); assay: split reporter

| binding [1] | binding [2] | Substance |
| --- | --- | --- |
| binds | – | CFTR with EYFP at the N-terminus (from UniProt P13569 1-1480) |
| – | no binding | CFTR R domain (595-860) of the SPASM sensor (from UniProt P13569 595-860) (domain or fragment) |
| – | no binding | CFTR NBD1+R-domain (351-850) of the SPASM sensor (from UniProt P13569 351-850) (domain or fragment) |
| – | binds | CFTR NBD2/C-terminus (1151-1480) of the sensor T2R14-SPASM-NBD2/C-terminus (from UniProt P13569 1151-1480) (domain or fragment) |
